From PubChem BioAssay AID602313 (National Center for Advancing Translational Sciences (NCATS), 2012)
About 760 (0.19%) of roughly 390,000 compounds were called active. Inconclusive means that the source gave no clear call. Such entries were picked first, then a sample of the others. The call rests on the fitted dose curve; in most records, active means well fitted inhibition curve with a large enough effect; inconclusive means small, poorly fitted or top-dose-only effect; inactive means flat fitted curve, though single readings scatter. Potencies of inconclusive entries are doubtful fits and often do not repeat.

Assay: qHTS for Inhibitors of Vif-A3F Interactions: qHTS; further: nearly all actives have a fitted effect of over 65% in size
Conditions: HeLa A3F-eYFP + Vif (tagged APOBEC3F with the HIV-1 protein that degrades it), YFP fluorescence increase; series mostly up to 46.1 µM
Method in brief: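 Fluorescence increase (Ex 488/Em 500-530) after overnight compound treatment at 37 deg C flags inhibition of Vif-driven A3F-eYFP loss in stable HeLa A3F-eYFP/Vif cells seeded overnight beforehand.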
Potency means the concentration at half of the fitted maximal effect.

SMILES | Potency
O=C(CSC1CN(C(c2ccccc2)c2ccccc2)C1)N/N=C/c1ccccc1 | inconclusive: 4.47 µM [inhibitor, full curve, poor fit]
Cc1ccc(C2C(C(=O)c3cccs3)=C(O)C(=O)N2c2nnc(C)s2)cc1 (stereo not drawn) | inconclusive: 20 µM [inhibitor, partial curve, poor fit]
O=C(/C=C/c1ccco1)Nc1ccc2c(c1)OCO2 | inconclusive: 35.5 µM [inhibitor, single point]
COc1ccc(C(=O)N2CCN(C3CCN(Cc4ccccc4)CC3)CC2)cc1OC | inactive
COc1ccc(N(CC(=O)Nc2c(C)n(C)n(-c3ccccc3)c2=O)S(=O)(=O)c2ccc(C)cc2)cc1OC | inconclusive: 10 µM [inhibitor, partial curve, poor fit]
COc1ccc(-c2ccc3c(c2)S(=O)(=O)c2cccc(C(=O)NCc4cccc(OC(F)(F)F)c4)c2C3=O)cc1OC | inconclusive: 2.82 µM [inhibitor, full curve, poor fit]
CCn1c(CCn2c3ccccc3c3ccccc32)n[nH]c1=S | inconclusive: 3.16 µM [inhibitor, partial curve, poor fit]
Cc1cc(C(C)(C)C)oc1C(=O)N(CC(=O)NC1CCCC1)c1c(C)cccc1C | inactive
CCCN1CCN(c2nnc(-n3cccc3C(=O)Nc3cc(Cl)ccc3C)s2)CC1 | inactive
O=c1ccc2cc(S(=O)(=O)Nc3ccc(F)c(Cl)c3)ccc2[nH]1 | inconclusive: 35.5 µM [inhibitor, single point]
COc1ccc(C2(C)NC(=O)N(CC(=O)Nc3ccc(-c4nc5ccc(C)cc5s4)cc3)C2=O)cc1 (stereo not drawn) | inconclusive: 15.8 µM [inhibitor, partial curve, poor fit]
O=S(=O)(NCc1ccccc1)NCc1ccc(Cl)cc1Cl | inconclusive: 35.5 µM [inhibitor, partial curve, poor fit]
COc1ccc(NC(=O)C2=C(C)NC(=S)NC2c2ccc(O)c(OC)c2)cc1 (stereo not drawn) | inconclusive: 6.31 µM [inhibitor, single point]
CN(N=Cc1cccc2cccnc12)c1ccc([N+](=O)[O-])cc1[N+](=O)[O-] | inconclusive: 3.16 µM [inhibitor, partial curve, poor fit]
O=C(NC(=S)Nc1ccc(F)cc1)c1ccc2c(c1)OCCO2 | inconclusive: 35.5 µM [inhibitor, single point]
CC(NC(=O)c1ccccc1)C(=O)N/N=C/c1ccco1 (stereo not drawn) | inconclusive: 3.16 µM [inhibitor, single point]
Cc1cc(-c2cn3ccccc3n2)c(C)n1-c1ccccc1 | inconclusive: 14.1 µM [inhibitor, partial curve, poor fit]
COc1ccc(NC(=O)CCN2CCN(Cc3ccccc3)CC2)c(OC)c1 | inconclusive: 35.5 µM [inhibitor, single point]
O=C(O)CNC(=S)N(Cc1ccccc1F)C1CCCCC1 | inconclusive: 2.82 µM [inhibitor, full curve, poor fit]
NC(=S)NN=C(Cc1ccccc1)Cc1ccccc1 | inconclusive: 5.62 µM [inhibitor, single point]
CCN1CCN(Cc2c(O)ccc3c2O/C(=C\C=C\c2ccccc2OC)C3=O)CC1 | inconclusive: 25.1 µM [inhibitor, single point]

SMILES | Potency
COc1cc(/C=C(\C#N)c2nc3ccccc3[nH]2)ccc1Oc1ccc([N+](=O)[O-])cn1 | inconclusive: 35.5 µM [inhibitor, single point]
CC1CCN(S(=O)(=O)c2ccc(NC(=O)c3cccs3)cc2)CC1 | inconclusive: 6.31 µM [inhibitor, single point]
Nc1c(C(=O)O)sc2nc(-c3ccc(F)cc3)cc(-c3ccccc3)c12 | active: 11.2 µM
Clc1ccc(-c2nnnn2-c2ccc(Cl)cc2)cc1 | inactive
Cc1cccc(C(=O)NCC(=O)NC(C)CCc2ccccc2)c1 (stereo not drawn) | inactive
CCOC(=O)c1sc(NC(=O)/C=C/c2ccc(F)cc2)nc1C | inconclusive: 3.16 µM [inhibitor, single point]
O=c1cc(-c2ccccc2)cc(-c2ccccc2)n1O | inconclusive: 28.2 µM [inhibitor, single point]
CC(C)NC(=O)c1sc2nc(-c3cccs3)cc(-c3cccs3)c2c1N | inconclusive: 3.98 µM [inhibitor, full curve]
CN1C2CCC1/C(=C\c1ccccc1)C(=O)/C2=C\c1ccccc1 | inconclusive: 31.6 µM [inhibitor, single point]
CN(C)c1ccc(/C=C/C(=O)c2c(O)c3ccccc3oc2=O)cc1 | inconclusive: 2.82 µM [inhibitor, full curve, poor fit]
COc1ccccc1NC(=O)c1c(NCc2ccc(C)o2)sc2c1CCCCC2 | inconclusive: 6.31 µM [inhibitor, partial curve, poor fit]
COC(=O)C(C)N1C(=O)S/C(=C\c2ccc(-c3ccc(C(=O)O)cc3C)o2)C1=O (stereo not drawn) | inconclusive: 35.5 µM [inhibitor, single point]
Cc1c(C(=O)OC(C)C(=O)N(C)Cc2ccccc2)oc2ccccc12 (stereo not drawn) | inactive
Cc1[nH]c2ccccc2c1/C=N/Nc1ccc([N+](=O)[O-])cc1S(=O)(=O)Nc1ccc(Cl)cc1 | inconclusive: 5.62 µM [inhibitor, single point]
COc1ccc(OC)c(C2CC(c3ccccc3)=NN2C(=S)Nc2ccccc2)c1 (stereo not drawn) | inactive
COc1ccc(OC)c(NC(=O)CN2C(=O)CC(C)Sc3ccccc32)c1 (stereo not drawn) | inactive
O=C1Nc2ccc(Br)cc2C1(O)c1ccccc1 (stereo not drawn) | inactive
NC(=O)COc1ccc(/C=C2\C(=O)ON=C2c2ccccc2)cc1 | inconclusive: 35.5 µM [inhibitor, single point]
NC(=O)c1ccc(NC(=O)COC(=O)c2c3c(nc4ccccc24)/C(=C\c2ccc4c(c2)OCO4)CCC3)cc1 | inconclusive: 2.82 µM [inhibitor, partial curve, poor fit]
COc1cc(OC)cc(C(=O)NCC(=O)NCCN2C(=O)S/C(=C\c3ccc4c(c3)OCO4)C2=O)c1 | inconclusive: 10 µM [inhibitor, partial curve, poor fit]
Cc1c(NC(=S)N/N=C/C=C/c2ccccc2)c(=O)n(-c2ccccc2)n1C | inconclusive: 3.55 µM [inhibitor, partial curve, poor fit]

SMILES | Potency
O=C(CSc1ccc([N+](=O)[O-])cn1)Nc1ccccc1N1CCOCC1 | inconclusive: 3.16 µM [inhibitor, single point]
O=C(O)C(=O)/C(=C\c1ccsc1)c1ccc2ccccc2n1 | inconclusive: 11.2 µM [inhibitor, partial curve, poor fit]
O=C(COc1ccc(Cl)cc1)N1CCN(C(=O)c2cccs2)CC1 | inactive
CC(C)(C)NC(=O)C(c1ccc(-c2ccccc2)cc1)N(C[C@H]1CC[C@@H]([C@@H]2CC[C@H](CO)O2)O1)C(=O)c1ccc(C(C)(C)C)cc1 (stereo partly drawn) | inconclusive: 35.5 µM [inhibitor, single point]
CCOC(=O)c1nn(-c2cccc(OC)c2)c2nc(Nc3ccccc3)cc(=O)n12 | inconclusive: 35.5 µM [inhibitor, single point]
O=C(O)c1ccccc1C(=O)N1CCN(Cc2ccc3c(c2)OCO3)CC1 | inactive
N#C/C(=C\c1ccc(O)c([N+](=O)[O-])c1)C(=O)NCc1ccccc1 | inconclusive: 35.5 µM [inhibitor, single point]
Nc1cccc2c1C(=O)N(C(=O)/C=C/c1cccc(Br)c1)C2=O | inconclusive: 3.98 µM [inhibitor, single point]
CC(C)NC(=S)N/N=C/c1sc(N2CCCCC2)nc1-c1cccs1 | active: 11.2 µM
CC1CCN(c2nc(CN3CCCCC3)nc3scc(-c4ccccc4)c23)CC1 | inconclusive: 25.1 µM [inhibitor, single point]
Fc1c(F)c(F)c(/C=N/NC(=S)Nc2cccnc2)c(F)c1F | inconclusive: 7.94 µM [inhibitor, partial curve, poor fit]
Nc1c(C(=O)Nc2cccc(Cl)c2Cl)sc2nc(-c3cccnc3)ccc12 | inconclusive: 35.5 µM [inhibitor, single point]
Cc1ccc(C(=O)c2cn(Cc3ccc(Cl)cc3)c3nc(C)ccc3c2=O)cc1 | inconclusive: 11.2 µM [inhibitor, partial curve, poor fit]
CCOc1ccc(Cn2c3ccc(OC)cc3c3nc4ccccc4nc32)cc1OC | inconclusive: 25.1 µM [inhibitor, single point]
O=C(O)c1cccc(-n2cccc2/C=C2/NC(=O)N(c3cccc(Cl)c3)C2=O)c1 | inactive
COc1cc(OC)c(C(=O)/C=C/c2ccccc2)c(O)c1O | inactive
Cc1cc(C)cc(-n2c(C)cc(/C=N\NC(=O)COc3cccc4cccnc34)c2C)c1 | inconclusive: 5.01 µM [inhibitor, single point]
COc1ccc(N2CCN(Cc3nnc(-c4cccc(Br)c4)o3)CC2)cc1 | inactive
O=c1[nH]c(Cc2ccccc2)nc2ccccc12 | inconclusive: 3.16 µM [inhibitor, partial curve, poor fit]
Cc1ccc(-c2nc(C=Nc3cccc(C)c3)c(O)o2)cc1 | inconclusive: 31.6 µM [inhibitor, single point]
FC(F)(F)c1ccccc1NC(=S)N1CCCC1 | inconclusive: 20 µM [inhibitor, partial curve, poor fit]

Part of the list above, field by field.
O=C(O)c1ccccc1C(=O)N1CCN(Cc2ccc3c(c2)OCO3)CC1
  Potency: inactive
N#C/C(=C\c1ccc(O)c([N+](=O)[O-])c1)C(=O)NCc1ccccc1
  Potency: inconclusive: 35.5 µM [inhibitor, single point]
Nc1cccc2c1C(=O)N(C(=O)/C=C/c1cccc(Br)c1)C2=O
  Potency: inconclusive: 3.98 µM [inhibitor, single point]
CC(C)NC(=S)N/N=C/c1sc(N2CCCCC2)nc1-c1cccs1
  Potency: active: 11.2 µM
